# Results of single-concentration screens

Data taken from ChEMBL document CHEMBL3988442, “University of Dundee, Small-Polar-MMV Screening Library” (2021).

Values are the deposited “Percent Effect”, in %.
How 0% and 100% were set is not recorded. Most values in the screen are low, and negative values occur.
Compounds were drawn at random from those tested, without regard to their results.

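Whole-parasite assay of Trypanosoma brucei over 72 hours; the read-out is not stated. Concentration: 30 µM. Higher reads as stronger inhibition (inferred: compounds with an IC50 in retests scored well above the rest). Values scatter widely below zero; nearly all retest evidence comes from the higher of the two concentrations used. Size under these conditions: about 64,000 compounds, about 940 of them at 50% or above in at least one test.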

Compound,Percent Effect
O=C(NCCN1CCCC(CO)C1)c1ccc2sccc2c1 (stereo not shown),2.348
CC(=O)NC1CCCN(C(=O)c2ccc(Br)cc2O)C1 (stereo not shown),-9.618
COC(=O)c1ccc(NC2CCN(CC(F)(F)F)C2=O)cc1C (stereo not shown),-40.91
CC(=O)N1C[C@H](NC(=O)c2csc(C(C)C)c2)[C@@H](C(C)C)C1,-34.35
CCOc1ccccc1-n1c(C2CCC2)n[nH]c1=O,-48.56
[H][C@@]12CCN(C(=O)c3ccno3)[C@]1([H])CCC(=O)N2Cc1csc(C)n1,-10.84
CCn1nc(C)c(CN(CCOC)C(=O)c2ccc(=O)[nH]n2)c1C,-31.99
N#Cc1cccc(C(=O)N2CCCC(C(=O)CCc3ccccc3)C2)c1 (stereo not shown),-29.09
Cc1ccc(C)c(CC(=O)NC2CCS(=O)(=O)CC2)c1,-8.829
Cc1nc(CN2CCCC23CCN(c2nc4ccccc4s2)CC3)co1,14.97
CCCN(C)C(=O)c1cc(S(=O)(=O)NCC)ccc1C,-19.15
CCCc1nnc(C(=O)N(C)Cc2ccc(OC)cc2)o1,-4.13
Cc1cnn(CC2CCCN2C(=O)c2cc(Cl)ccc2F)c1 (stereo not shown),-10.98
Cc1ccc(C(NC(=O)CCNC(=O)c2ccoc2)C(F)(F)F)cc1 (stereo not shown),-47.28
O=S1(=O)c2ccccc2OCC2(CCN(CCO)CC2)CN1CC1CC1,-19.47
Cc1nc(CN(C)C2CCN(CCC(=O)N3CCOCC3)C2)no1 (stereo not shown),-20
CC(C)CCOCCNC(=O)Nc1cc(C(F)(F)F)c[nH]c1=O,8.711
O=C(CSc1ccncc1)NC1CC(=O)N(CCc2ccccc2)C1 (stereo not shown),-18.1
Cc1cc(N2Cc3cnn(CCO)c3C2)nc(-c2ccccc2)n1,-29.1
COc1ccc2nc(C[C@@H]3C[C@@H](C(C)C)[C@H](CN)C=C3C)[nH]c2n1,-6.522
CN(C)C[C@@H]1CN(C(=O)Cc2ccc3ccccc3c2)C[C@@H]1CO,-8.275
CCc1nc(C2CCCN2C(=O)c2cnc[nH]2)no1 (stereo not shown),-6.572
COc1cccc(OC)c1-c1ccnc2cc(CC(=O)NC(C)C)nn12,-6.708
CC1CCCN(C(=O)c2cccc(CS(C)(=O)=O)c2)C1 (stereo not shown),-10.17
CSCCc1ccc(NC(=O)NC(C)Cn2cncn2)cc1 (stereo not shown),-15.32
O=C1CC2(CCN(C(=O)c3ccccn3)CC2)Oc2c(Cl)cc(Cl)cc21,8.728
Cc1cc(=O)[nH]c(-n2nc(-c3ccccc3)cc2N)n1,-3.849
O=C(NCc1c(F)cccc1F)C1CN(C(=O)c2cnccn2)C1,7.176
Cc1ccc(C(=O)N2CC(C(N)=O)O[C@H](C)C2)c(F)c1 (stereo partly shown),-66.32
CCS(=O)(=O)N1CCCn2c(nc(CN3CCCC3)cc2=O)C1,-6.925
CCN1C(=O)CCC12CCCN(Cc1ccc(F)cc1)CC2.O=C(O)C(F)(F)F (stereo not shown),-27.1
COCCn1ccc2c(cnc3nc(SC)nn32)c1=O,-17.03
CCN1CCn2c(-c3cccc(F)c3)cnc2C12CCN(C(C)=O)CC2.O=C(O)C(F)(F)F,-18.23
O=C(O)C(F)(F)F.O=C(O)C(F)(F)F.[H][C@@]12OCCC[C@]1([H])N(C(=O)c1cccc(C)n1)C[C@H]2OCc1ccncc1,-13.72
CC(C)(C)c1noc(CCC(=O)N2CCNC(=O)C2)n1,-58.32
CS(=O)(=O)CCCN(CCCO)C1CCc2ccccc21 (stereo not shown),-29.78
CN(CCn1cccn1)c1cc(C(F)(F)F)nc(-c2cccnc2)n1,-0.2694
O=C(c1cccnc1)N1CCc2[nH]nc(Nc3ccccc3)c2C1,-7.541
Cc1ccc(C(=O)N2CCCC(CNS(=O)(=O)C(C)C)C2)cc1 (stereo not shown),-37.45
COCC(=O)N(CCC(=O)OC)CC1CCCO1 (stereo not shown),-56.65
CC(CC(=O)NCCS(N)(=O)=O)C1CCCCC1 (stereo not shown),-3.628
COc1cc(N2CCCC(c3nccn3Cc3cscn3)C2)nc(N)n1 (stereo not shown),59
Cc1nn(C)c(C)c1C(=O)NCc1ccnc(OCC(F)(F)F)c1,6.931
CN(Cc1nnc2n1CCC2)C(=O)c1ccc2c(c1)OCCCO2,-46.88
CCc1ncc2c(n1)CN(CC(=O)Nc1cc(C)no1)CC2,6.417
CSC(C)C(=O)N1CCCN(Cc2nccn2C)CC1 (stereo not shown),1.884
O=C(C1CC1)N1CC[C@H](c2nc3ccccc3o2)C1,-71.23
Cc1nc2c(c(NC3CC3)n1)CCN(C(=O)CCc1cccnc1)CC2,3.978
CCn1c(C)cc(C(=O)NCc2cccc(S(=O)(=O)NC)c2)c1C,-18.93
NC(=O)Cn1c(CO)cnc1SCc1ccccc1Cl,-8.141
Cc1ccsc1C1CC(=O)Nc2c1cnn2C(C)C (stereo not shown),7.198
CCc1ccc2nc(C)cc(C(=O)NC3CCC(=O)N(C)C3)c2c1 (stereo not shown),-78.31
O=C(O)C(F)(F)F.O=C(O)C(F)(F)F.O=C(O)c1c(-c2cncnc2)ncc2c1CCN(Cc1ccco1)C2,-20.25
Cc1nccn1-c1cc(CNC(=O)CC2CCCO2)ccn1 (stereo not shown),-11.15
[H][C@]12CCC[C@@]1(COC)CN(C(=O)Cc1ccco1)C2,-25.25
F[C@@H]1CN(CC2CC2)C[C@@H]1OCc1nc2ccc(C(F)(F)F)cc2[nH]1,-9.107
N#Cc1c(N)nc2c(c1-c1c[nH]nc1C1CCCCC1)COCC2,-116.7
C[C@H](NC(=O)N1CCN(c2ccc(Cl)cc2)CC1)C(=O)N1CCSCC1,-37.38
CCOCC(=O)N1CCC(C)(c2nccs2)CC1,-16.75

Once more, the final 3:

Compound	Percent Effect
N#Cc1c(N)nc2c(c1-c1c[nH]nc1C1CCCCC1)COCC2	-116.7
C[C@H](NC(=O)N1CCN(c2ccc(Cl)cc2)CC1)C(=O)N1CCSCC1	-37.38
CCOCC(=O)N1CCC(C)(c2nccs2)CC1	-16.75